# Measured values reported in US6586606B2, “Process for the preparation of 3-aryl-benzofuran-2-ones” (Ciba Specialty Chemicals Corporation, priority 2000, dated 2003).
# Assays:
# [1] = Stabilization of multiple-extruded polypropylene at high temperature (melt index); conditions: with 0.05% Irganox 1010, 0.10% calcium stearate, Irgafos 168 0.100%, Sandostab P-EPQ 0.050%, Compound (301) 0.015%, mixtures 0.045% + 0.005%, measured at 230° C./2.16 kg
# [2] = Stabilization of polycarbonate (oven ageing at 135° C., yellowness index and transmission); conditions: 2 mm polycarbonate plates, Irgafos 168 0.05%, Compound (301) 0.01%, Compound (314) 0.01%; for Yellowness index after 2000 hours at 135° C. / Transmission in % after 2000 hours at 135° C.: circulating air oven; for Yellowness index after 2000 hours at 135° C.: unstabilized 25.5; for Yellowness index prior to oven-ageing: unstabilized 4.1; for Transmission in % after 2000 hours at 135° C. / Transmission in % prior to oven-aging: at 450 nm; for Transmission in % after 2000 hours at 135° C.: unstabilized 76.2; for Transmission in % prior to oven-aging: unstabilized 84.8
# [3] = Stabilization of polyethylene during processing (Brabender plastograph, torque); conditions: 0.05 part compound with 0.05 part Irganox 1010 per 100 parts polyethylene; kneaded at 220° C. and 50 rpm; without compound 9.7
# [4] = Stabilization of multiple-extruded polypropylene (melt index); conditions: 0.05% of compound with 0.05% Irganox 1010, 0.05% calcium stearate, 0.03% DHT 4A; extruded at 260, 270, 280° C.; measured at 230° C./2.16 kg; without compound 17.8
compound,measurement,setting,value
"CC(C)(C)c1cc(C(C)(C)C)c2oc(N)c(-c3ccccc3)c2c1 [Compound (301), 2-amino-3-phenyl-5,7-di-tert-butyl-benzofurane]",Melt index after 5 extrusions 280° C.,[1],8.1
same,Melt index after 5 extrusions 320° C.,[1],19.8
same,Melt index after 5 extrusions 340° C.,[1],22.7
same,Yellowness index after 2000 hours at 135° C.,[2],16.6
same,Yellowness index prior to oven-ageing,[2],3.5
same,Transmission in % after 2000 hours at 135° C.,[2],81.2%
same,Transmission in % prior to oven-aging,[2],85.9%
same,Time until increase in torque,[3],27.4 min
same,Melt index after 3 extrusions,[4],4.9
"Cc1ccc(-c2c(N)oc3c(C(C)(C)C)cc(C(C)(C)C)cc23)cc1C [Compound (302), 2-amino-5,7-di-tert-butyl-3-(3,4-dimethylphenyl)-benzofurane]",Time until increase in torque,[3],27.4 min
same,Melt index after 3 extrusions,[4],4.9
Cc1cc(C(C)(C)C(C)C)c2oc(N)c(-c3ccccc3)c2c1 [Compound (307)],Time until increase in torque,[3],27.3 min
Cc1cccc(-c2c(N)oc3c(C(C)(C)C)cc(C(C)(C)C)cc23)c1 [Compound (310)],Time until increase in torque,[3],27.4 min
Cc1ccc(-c2c(N)oc3c(C(C)(C)C)cc(C(C)(C)C)cc23)cc1 [Compound (311)],Melt index after 3 extrusions,[4],4.9
CC(C)(C)c1cc(C(C)(C)C)c2oc(N)c(-c3cccc(C(F)(F)F)c3)c2c1 [Compound (313)],Melt index after 3 extrusions,[4],4.9
CC(C)(C)c1cc(C(C)(C)C)c2oc(N)c(-c3ccc(C(F)(F)F)cc3)c2c1 [Compound (314)],Yellowness index after 2000 hours at 135° C.,[2],15.5
same,Yellowness index prior to oven-ageing,[2],3.5
same,Transmission in % after 2000 hours at 135° C.,[2],81.5%
same,Transmission in % prior to oven-aging,[2],85.9%
CC(C)(C)c1cc(C(C)(C)C)c2oc(N)c(-c3ccccn3)c2c1 [Compound (319)],Melt index after 3 extrusions,[4],4.9
CC(C)(C)c1cc(C(C)(C)C)c2oc(N)c(-c3cccs3)c2c1 [Compound (320)],Time until increase in torque,[3],27.3 min
"CC(C)(C)c1ccc(OP(Oc2ccc(C(C)(C)C)cc2C(C)(C)C)Oc2ccc(C(C)(C)C)cc2C(C)(C)C)c(C(C)(C)C)c1 [Irgafos ® 168, tris(2,4-di-tert-butylphenyl)phosphite, reference compound]",Melt index after 5 extrusions 280° C.,[1],9.8
same,Melt index after 5 extrusions 320° C.,[1],44.0
same,Melt index after 5 extrusions 340° C.,[1],80.4
same,Yellowness index after 2000 hours at 135° C.,[2],23.9
same,Yellowness index prior to oven-ageing,[2],3.5
same,Transmission in % after 2000 hours at 135° C.,[2],77.9%
same,Transmission in % prior to oven-aging,[2],84.8%
"CC(C)(C)c1ccc(OP(Oc2ccc(C(C)(C)C)cc2C(C)(C)C)c2ccc(-c3ccc(P(Oc4ccc(C(C)(C)C)cc4C(C)(C)C)Oc4ccc(C(C)(C)C)cc4C(C)(C)C)cc3)cc2)c(C(C)(C)C)c1 [Sandostab ® P-EPQ, tetrakis(2,4-di-tert-butylphenyl)-4,4′-biphenylene diphosphonite]",Melt index after 5 extrusions 280° C.,[1],6.4
same,Melt index after 5 extrusions 320° C.,[1],24.1
same,Melt index after 5 extrusions 340° C.,[1],61.9
